PubChem BioAssay AID686937 | Drosophila RNAi Screening Center, 2013

Test: 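Genes whose loss weakens secretory pathway function in fly cells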 (primary screen)
System: Drosophila S2 cells expressing secreted horseradish peroxidase
Knock-down reagent: long dsRNA against Drosophila genes
Timing: about 5.5 days (5 days dsRNA, then 12 h reporter induction)
Conditions: reporter expression induced after 5 days of dsRNA, read 12 h later; inducer not stated
Detection: 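Chemiluminescent measurement of peroxidase in the medium 12 h after reporter induction, following 5 days of dsRNA, given as a z-score per plate; higher means more secretion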
Scale: z-score: higher = more reporter secreted into medium
The deposit covers about 23,000 reagents; below is a random part of those that have a named target and a result. 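Reduced-secretion tags in replicate 1 do not always agree with the z-scores; no criterion for assigning the tags was given.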 The numbers tell different reagents against one gene apart. Further read-outs or replicates are left out here. Not stated in the record: the amount of reagent.

{"predicted target": "CG4115", "dsRNA no.": 1, "z-score, replicate 1": 0.45}
{"predicted target": "Vps29", "dsRNA no.": 1, "z-score, replicate 1": 0.07}
{"predicted target": "Phlpp", "dsRNA no.": 1, "z-score, replicate 1": 0.06}
{"predicted target": "Phlpp", "dsRNA no.": 2, "z-score, replicate 1": 0.01}
{"predicted target": "CG42237", "dsRNA no.": 1, "z-score, replicate 1": 0.48}
{"predicted target": "Elp4", "dsRNA no.": 1, "z-score, replicate 1": -1.12}
{"predicted target": "Nelf-A", "dsRNA no.": 1, "z-score, replicate 1": 0.64}
{"predicted target": "CG6695", "dsRNA no.": 1, "z-score, replicate 1": 0.34}
{"predicted target": "CG15382", "dsRNA no.": 1, "z-score, replicate 1": 0.28}
{"predicted target": "Prosbeta3", "dsRNA no.": 1, "z-score, replicate 1": -5.28}
{"predicted target": "CG11191", "dsRNA no.": 1, "z-score, replicate 1": 0.18}
{"predicted target": "Diedel3", "dsRNA no.": 1, "z-score, replicate 1": -0.19}
{"predicted target": "CG15040", "dsRNA no.": 1, "z-score, replicate 1": -0.86}
{"predicted target": "CG15040", "dsRNA no.": 2, "z-score, replicate 1": 1.22}
{"predicted target": "CG4763", "dsRNA no.": 1, "z-score, replicate 1": -1.32}
{"predicted target": "CG4763", "dsRNA no.": 2, "z-score, replicate 1": 0.09}
